Measurements taken from publication PMC9701038.
These are yes or no findings as the source states them, for the method shown. In cells and extracts the contact can be indirect. Some results given as binding are weak or reduced against the parent protein; the word gives no strength.

By UniProt entry, the sequences of proteins in these tests, tags left out.
UniProt Q71RC2: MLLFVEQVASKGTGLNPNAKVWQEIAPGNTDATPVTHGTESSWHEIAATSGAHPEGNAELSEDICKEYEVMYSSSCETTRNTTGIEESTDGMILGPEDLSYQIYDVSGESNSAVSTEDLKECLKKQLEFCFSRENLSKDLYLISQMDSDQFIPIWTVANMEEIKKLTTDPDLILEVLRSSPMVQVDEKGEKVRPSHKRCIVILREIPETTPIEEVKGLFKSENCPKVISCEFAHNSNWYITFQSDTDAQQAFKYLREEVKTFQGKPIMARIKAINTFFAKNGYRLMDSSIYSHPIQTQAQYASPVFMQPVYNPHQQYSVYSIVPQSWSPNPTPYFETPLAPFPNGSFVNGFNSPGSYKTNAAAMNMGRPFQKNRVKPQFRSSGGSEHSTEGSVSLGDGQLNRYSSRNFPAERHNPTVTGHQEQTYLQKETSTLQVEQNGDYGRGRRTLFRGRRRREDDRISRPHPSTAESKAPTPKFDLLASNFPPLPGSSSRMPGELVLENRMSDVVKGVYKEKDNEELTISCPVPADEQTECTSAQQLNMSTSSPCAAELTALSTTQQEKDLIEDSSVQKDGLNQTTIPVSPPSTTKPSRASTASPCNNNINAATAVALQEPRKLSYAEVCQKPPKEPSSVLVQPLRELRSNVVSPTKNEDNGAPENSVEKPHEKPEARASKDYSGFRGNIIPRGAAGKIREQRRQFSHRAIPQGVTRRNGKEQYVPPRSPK
UniProt Q92615: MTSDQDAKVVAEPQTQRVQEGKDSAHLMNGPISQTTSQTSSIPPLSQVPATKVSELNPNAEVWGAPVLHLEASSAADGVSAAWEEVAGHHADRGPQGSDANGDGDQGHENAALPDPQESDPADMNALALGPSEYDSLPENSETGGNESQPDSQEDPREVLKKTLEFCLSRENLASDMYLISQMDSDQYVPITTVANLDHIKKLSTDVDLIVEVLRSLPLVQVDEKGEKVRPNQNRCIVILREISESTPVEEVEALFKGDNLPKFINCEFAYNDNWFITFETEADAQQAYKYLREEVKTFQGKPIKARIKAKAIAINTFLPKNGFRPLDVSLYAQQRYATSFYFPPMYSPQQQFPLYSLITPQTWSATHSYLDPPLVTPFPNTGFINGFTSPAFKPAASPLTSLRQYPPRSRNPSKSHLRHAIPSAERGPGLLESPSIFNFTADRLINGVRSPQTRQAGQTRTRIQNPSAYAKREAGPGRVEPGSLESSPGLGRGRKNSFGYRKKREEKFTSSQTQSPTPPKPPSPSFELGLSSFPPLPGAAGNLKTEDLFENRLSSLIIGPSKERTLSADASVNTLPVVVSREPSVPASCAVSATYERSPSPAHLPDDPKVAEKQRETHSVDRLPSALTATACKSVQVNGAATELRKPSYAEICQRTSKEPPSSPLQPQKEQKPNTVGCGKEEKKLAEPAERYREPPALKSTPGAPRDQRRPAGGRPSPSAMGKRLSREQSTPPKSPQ

T1: exogenous HOGA1 (human) (UniProt Q86XE5)
T1 sequence: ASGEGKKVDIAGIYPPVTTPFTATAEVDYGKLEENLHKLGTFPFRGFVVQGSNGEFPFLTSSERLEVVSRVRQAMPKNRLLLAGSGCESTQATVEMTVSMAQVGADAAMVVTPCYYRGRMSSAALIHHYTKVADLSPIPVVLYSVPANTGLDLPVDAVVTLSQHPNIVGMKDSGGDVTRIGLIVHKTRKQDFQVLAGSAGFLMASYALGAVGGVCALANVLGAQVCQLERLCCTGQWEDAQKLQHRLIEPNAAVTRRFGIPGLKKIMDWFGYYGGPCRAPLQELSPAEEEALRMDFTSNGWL

T2: endogenous HOGA1 (human (endogenous in BxPC-3)) (UniProt Q86XE5)
T2 sequence: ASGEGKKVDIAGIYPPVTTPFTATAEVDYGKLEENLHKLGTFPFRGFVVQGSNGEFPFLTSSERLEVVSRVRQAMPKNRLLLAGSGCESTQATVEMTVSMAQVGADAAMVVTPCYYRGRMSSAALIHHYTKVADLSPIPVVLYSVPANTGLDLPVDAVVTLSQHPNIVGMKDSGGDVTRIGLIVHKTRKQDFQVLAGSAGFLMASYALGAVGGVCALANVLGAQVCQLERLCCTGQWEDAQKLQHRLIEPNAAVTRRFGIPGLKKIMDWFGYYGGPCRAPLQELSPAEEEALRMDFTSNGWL


Columns and labels:
exogenous HOGA1 (human) = biological target: T1, exogenous HOGA1 (human); assay: co-IP; exogenous tagged HOGA1 and LARPs in PANC-1 cells; lysis in 0.5% NP-40 buffer (50 mM Tris-HCl pH 7.5, 150 mM NaCl, 0.3% NONIDET P-40); Flag beads 3 h at 4 C; SDS-PAGE and western blot
[1] = biological target: T2, endogenous HOGA1 (human (endogenous in BxPC-3)); assay: co-IP; endogenous HOGA1 and endogenous LARPs in BxPC-3 cells; precipitating antibody not stated

Row | Molecule | binding (exogenous HOGA1 (human)) | binding [1]
1 | exogenous LARP4 (from UniProt Q71RC2 1-724) | binds | 
2 | exogenous LARP4B (from UniProt Q92615 1-738) | binds | 
3 | endogenous LARP4B (from UniProt Q92615 1-738) |  | binds

Other lines, results leading:

Row | binding (exogenous HOGA1 (human)) | binding [1] | Molecule
4 |  | binds | endogenous LARP4 (from UniProt Q71RC2 1-724)
5 |  | binds | endogenous LARP7 (protein, UniProt Q4G0J3 1-582) METESGNQEKVMEEESTEKKKEVEKKKRSRVKQVLADIAKQVDFWFGDANLHKDRFLREQIEKSRDGYVDISLLVSFNKMKKLTTDGKLIARALRSSAVVELDLEGTRIRRKKPLGERPKDEDERTVYVELLPKNVNHSWIERVFGKCGNVVYISIPHYKSTGDPKGFAFVEFETKEQAAKAIEFLNNPPEEAPRKPGIFPKTVKNKPIPALRVVEEKKKKKKKKGRMKKEDNIQAKEENMDTSNTSISKMKRSRPTSEGSDIESTEPQKQCSKKKKKRDRVEASSLPEVRTGKRKRSSSEDAESLAPRSKVKKIIQKDIIKEASEASKENRDIEISTEEEKDTGDLKDSSLLKTKRKHKKKHKERHKMGEEVIPLRVLSKSEWMDLKKEYLALQKASMASLKKTISQIKSESEMETDSGVPQNTGMKNEKTANREECRTQEKVNATGPQFVSGVIVKIISTEPLPGRKQVRDTLAAISEVLYVDLLEGDTECHARFKTPEDAQAVINAYTEINKKHCWKLEILSGDHEQRYWQKILVDRQAKLNQPREKKRGTEKLITKAEKIRLAKTQQASKHIRFSEYD
